According to paper PMC9917443:
No constants are given. Whether binding was seen depends on the method and setting. Some results given as binding are weak or reduced against the parent protein; the word gives no strength.

Amino acid sequences for entries named in this document (tags omitted). A change or cut given only in a name is not applied to a line headed by its entry.
UniProt Q9Z0U4: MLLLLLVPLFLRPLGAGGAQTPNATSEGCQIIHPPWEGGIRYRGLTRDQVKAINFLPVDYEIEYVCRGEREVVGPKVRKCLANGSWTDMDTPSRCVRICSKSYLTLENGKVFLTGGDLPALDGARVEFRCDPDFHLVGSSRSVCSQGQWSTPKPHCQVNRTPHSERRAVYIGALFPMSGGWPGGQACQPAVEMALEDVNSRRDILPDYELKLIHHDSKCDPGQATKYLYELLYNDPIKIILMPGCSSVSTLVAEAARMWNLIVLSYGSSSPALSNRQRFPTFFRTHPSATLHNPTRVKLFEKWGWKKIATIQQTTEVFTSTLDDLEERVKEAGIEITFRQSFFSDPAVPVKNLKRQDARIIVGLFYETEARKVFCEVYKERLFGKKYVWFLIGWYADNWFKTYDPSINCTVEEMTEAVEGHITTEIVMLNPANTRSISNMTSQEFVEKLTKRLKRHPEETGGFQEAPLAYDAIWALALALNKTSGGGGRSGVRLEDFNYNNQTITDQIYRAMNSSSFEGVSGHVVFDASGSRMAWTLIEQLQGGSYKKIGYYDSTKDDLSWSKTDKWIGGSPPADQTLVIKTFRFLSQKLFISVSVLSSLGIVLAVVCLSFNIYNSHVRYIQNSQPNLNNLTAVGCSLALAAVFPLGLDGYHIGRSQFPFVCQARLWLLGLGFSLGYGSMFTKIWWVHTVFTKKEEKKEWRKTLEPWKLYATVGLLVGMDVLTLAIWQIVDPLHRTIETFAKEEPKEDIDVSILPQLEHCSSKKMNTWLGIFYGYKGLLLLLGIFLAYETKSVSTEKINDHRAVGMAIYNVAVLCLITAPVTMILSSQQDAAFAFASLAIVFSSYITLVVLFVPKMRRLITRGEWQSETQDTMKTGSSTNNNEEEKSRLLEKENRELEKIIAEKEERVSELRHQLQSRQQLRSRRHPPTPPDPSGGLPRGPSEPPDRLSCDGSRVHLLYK

Target: GB1a/2 receptors expressed in HEK293T cells (UniProt Q9Z0U4)
Assay: fluorescence of TMR-labelled peptide bound to cells (microplate reader); HEK293T cells expressing Flag-GB1a and Flag-GB2 in 96-well plates; 1 μM APP17-TMR with vehicle, 10 μM APP17 or 10 μM sc-APP17; 1 hr at room temperature; background of sc-APP17-TMR at cells transfected with empty vector subtracted; only the binder purified

DDSDVWWGGADTDYADG (N-terminal acetyl (Ac-); C-terminal amide (-NH2)) [APP17] was tested. Which binding did it give?
Its binding is “binds”.
